# From the supplement of paper PMC9433722
# Counter-ions that a name gives are not always drawn. The list shows a part of the results. Single values are uncertain, as repeats are few or missing.
# Tested on: U2OS
# Assay: cell viability (CCK-8) relative to DMSO control (% of control); higher = less cytotoxic
# Conditions: 10 µM; 48 h
row,Compound,cell viability
1,CCc1cc(C(N)=S)ccn1 [Ethionamide],93.8
2,CO/N=C(\C(=O)N[C@@H]1C(=O)N2C(C(=O)O)=C(COC(C)=O)CS[C@H]12)c1csc(N)n1 [Cefotaxime Acid],92.4
3,CO/N=C(\C(=O)N[C@@H]1C(=O)N2C(C(=O)[O-])=C(C[N+]3(C)CCCC3)CS[C@H]12)c1csc(N)n1 [Cefepime·2HCl Hydrate],95.7
4,CN(C)CCc1c[nH]c2ccc(CS(=O)(=O)N3CCCC3)cc12 [Almotriptan malate],97.9
5,NC(=O)N[C@@H](CCC(=O)O)C(=O)O [Carglumic Acid],107
6,CCCCCOC(=O)Nc1nc(=O)n([C@@H]2O[C@H](C)[C@@H](O)[C@H]2O)cc1F [Capecitabine],108
7,NC(=O)Cc1cccc(C(=O)c2ccccc2)c1N [Nepafenac],100
8,CCCC(=O)O[C@]1(C(=O)COC(C)=O)CC[C@H]2[C@@H]3C[C@H](F)C4=CC(=O)C=C[C@]4(C)[C@@]3(F)[C@@H](O)C[C@@]21C [Difluprednate],106
9,CN1CC(=O)N2[C@H](c3ccc4c(c3)OCO4)c3[nH]c4ccccc4c3C[C@@H]2C1=O [Tadalafil],104
10,CCN(CC)CCCC(C)Nc1ccnc2cc(Cl)ccc12 (configuration not stated) [Chloroquine Diphosphate],84.3
11,Cc1nccn1CC1CCc2c(c3ccccc3n2C)C1=O (configuration not stated) [Ondansetron],101
12,COC(=O)C1=C(C)NC(C)=C(C(=O)OCCN(C)Cc2ccccc2)C1c1cccc([N+](=O)[O-])c1 (configuration not stated) [Nicardipine . hydrochloride],87.8

# Some of these compounds in order of length of the SMILES, falling.
row,Compound,cell viability
7,NC(=O)Cc1cccc(C(=O)c2ccccc2)c1N [Nepafenac],100
5,NC(=O)N[C@@H](CCC(=O)O)C(=O)O [Carglumic Acid],107
1,CCc1cc(C(N)=S)ccn1 [Ethionamide],93.8
